Screening data, single-dose tests

The chains behind the UniProt entries cited, without tags or fusion partners. Residues count along the entry.
UniProt P9WNZ1, whole entry: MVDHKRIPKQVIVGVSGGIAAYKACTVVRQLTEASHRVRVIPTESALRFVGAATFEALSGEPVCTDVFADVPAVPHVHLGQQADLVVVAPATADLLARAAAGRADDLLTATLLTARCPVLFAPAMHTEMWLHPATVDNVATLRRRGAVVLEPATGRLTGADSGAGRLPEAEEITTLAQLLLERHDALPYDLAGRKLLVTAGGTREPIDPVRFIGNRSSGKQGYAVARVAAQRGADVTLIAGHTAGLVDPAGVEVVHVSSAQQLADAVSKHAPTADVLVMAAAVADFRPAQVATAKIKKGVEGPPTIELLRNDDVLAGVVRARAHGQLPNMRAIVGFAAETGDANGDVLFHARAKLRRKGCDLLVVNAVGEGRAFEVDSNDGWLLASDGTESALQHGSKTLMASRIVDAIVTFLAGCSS
UniProt I6X8D2, whole entry: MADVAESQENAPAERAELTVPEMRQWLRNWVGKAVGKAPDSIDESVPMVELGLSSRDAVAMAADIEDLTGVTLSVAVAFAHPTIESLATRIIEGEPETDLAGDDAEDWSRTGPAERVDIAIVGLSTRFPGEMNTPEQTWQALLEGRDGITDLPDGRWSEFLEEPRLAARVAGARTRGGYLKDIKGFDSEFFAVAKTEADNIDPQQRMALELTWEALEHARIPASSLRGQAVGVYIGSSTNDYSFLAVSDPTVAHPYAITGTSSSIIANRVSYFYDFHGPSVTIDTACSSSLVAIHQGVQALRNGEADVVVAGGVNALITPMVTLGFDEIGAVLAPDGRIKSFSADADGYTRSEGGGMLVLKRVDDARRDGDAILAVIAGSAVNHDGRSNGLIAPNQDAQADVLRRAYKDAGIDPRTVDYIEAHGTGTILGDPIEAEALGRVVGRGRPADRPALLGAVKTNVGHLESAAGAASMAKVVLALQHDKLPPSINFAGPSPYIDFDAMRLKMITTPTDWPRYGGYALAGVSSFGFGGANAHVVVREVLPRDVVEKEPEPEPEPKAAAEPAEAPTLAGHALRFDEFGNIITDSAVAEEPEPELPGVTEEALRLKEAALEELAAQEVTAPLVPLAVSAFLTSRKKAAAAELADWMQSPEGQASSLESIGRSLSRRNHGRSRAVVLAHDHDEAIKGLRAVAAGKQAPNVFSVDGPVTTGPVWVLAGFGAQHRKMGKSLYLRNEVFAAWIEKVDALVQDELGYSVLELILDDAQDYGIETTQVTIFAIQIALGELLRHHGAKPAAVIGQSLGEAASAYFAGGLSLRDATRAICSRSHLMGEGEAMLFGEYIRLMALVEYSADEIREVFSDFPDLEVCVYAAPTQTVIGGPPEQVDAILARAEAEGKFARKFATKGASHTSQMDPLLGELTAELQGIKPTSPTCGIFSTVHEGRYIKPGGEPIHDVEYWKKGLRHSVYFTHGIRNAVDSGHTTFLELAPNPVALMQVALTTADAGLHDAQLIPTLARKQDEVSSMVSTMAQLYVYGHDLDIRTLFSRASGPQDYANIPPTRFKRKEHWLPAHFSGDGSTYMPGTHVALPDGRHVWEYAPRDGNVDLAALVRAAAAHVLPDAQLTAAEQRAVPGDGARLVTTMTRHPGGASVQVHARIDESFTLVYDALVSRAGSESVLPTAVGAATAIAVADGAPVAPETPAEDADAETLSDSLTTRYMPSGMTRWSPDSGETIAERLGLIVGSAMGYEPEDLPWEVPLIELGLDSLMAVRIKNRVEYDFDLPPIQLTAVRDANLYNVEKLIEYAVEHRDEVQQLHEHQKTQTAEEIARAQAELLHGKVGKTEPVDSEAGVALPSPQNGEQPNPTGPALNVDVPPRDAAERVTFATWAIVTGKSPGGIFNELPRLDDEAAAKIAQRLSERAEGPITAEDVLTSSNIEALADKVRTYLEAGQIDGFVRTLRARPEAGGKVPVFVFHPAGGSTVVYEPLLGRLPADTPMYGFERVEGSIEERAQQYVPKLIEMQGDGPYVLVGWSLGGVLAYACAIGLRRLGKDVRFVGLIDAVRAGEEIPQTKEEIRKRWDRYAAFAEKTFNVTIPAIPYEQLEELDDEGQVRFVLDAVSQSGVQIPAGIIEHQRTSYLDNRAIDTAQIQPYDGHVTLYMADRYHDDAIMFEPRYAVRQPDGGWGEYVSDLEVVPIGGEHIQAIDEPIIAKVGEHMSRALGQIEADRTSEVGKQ
UniProt P9WPC5, whole entry: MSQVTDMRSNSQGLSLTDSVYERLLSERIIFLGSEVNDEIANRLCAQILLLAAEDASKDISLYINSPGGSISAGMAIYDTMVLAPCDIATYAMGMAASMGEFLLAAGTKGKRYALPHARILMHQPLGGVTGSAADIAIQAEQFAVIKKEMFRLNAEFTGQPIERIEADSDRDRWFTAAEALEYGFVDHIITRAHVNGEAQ
UniProt P9WPC3, whole entry partner: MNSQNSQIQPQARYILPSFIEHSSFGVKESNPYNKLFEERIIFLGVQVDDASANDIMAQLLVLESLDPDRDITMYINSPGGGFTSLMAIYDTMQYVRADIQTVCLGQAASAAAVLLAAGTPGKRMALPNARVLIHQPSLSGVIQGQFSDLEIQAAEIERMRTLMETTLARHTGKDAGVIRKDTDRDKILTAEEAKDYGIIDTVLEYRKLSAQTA
UniProt A4I591, 1-473: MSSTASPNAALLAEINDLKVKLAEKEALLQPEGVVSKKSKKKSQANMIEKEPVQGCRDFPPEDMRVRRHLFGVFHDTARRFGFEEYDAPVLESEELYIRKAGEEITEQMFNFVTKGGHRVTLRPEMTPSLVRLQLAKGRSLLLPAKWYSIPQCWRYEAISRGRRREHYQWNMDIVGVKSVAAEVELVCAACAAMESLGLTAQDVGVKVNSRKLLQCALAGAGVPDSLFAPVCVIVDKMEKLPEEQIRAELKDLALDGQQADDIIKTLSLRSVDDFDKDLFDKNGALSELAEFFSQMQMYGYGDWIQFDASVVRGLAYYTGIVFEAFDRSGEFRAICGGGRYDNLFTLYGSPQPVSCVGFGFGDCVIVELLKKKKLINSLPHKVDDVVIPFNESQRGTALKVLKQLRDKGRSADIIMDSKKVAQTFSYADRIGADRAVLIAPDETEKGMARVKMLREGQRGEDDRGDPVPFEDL
UniProt P9WFT3, whole entry: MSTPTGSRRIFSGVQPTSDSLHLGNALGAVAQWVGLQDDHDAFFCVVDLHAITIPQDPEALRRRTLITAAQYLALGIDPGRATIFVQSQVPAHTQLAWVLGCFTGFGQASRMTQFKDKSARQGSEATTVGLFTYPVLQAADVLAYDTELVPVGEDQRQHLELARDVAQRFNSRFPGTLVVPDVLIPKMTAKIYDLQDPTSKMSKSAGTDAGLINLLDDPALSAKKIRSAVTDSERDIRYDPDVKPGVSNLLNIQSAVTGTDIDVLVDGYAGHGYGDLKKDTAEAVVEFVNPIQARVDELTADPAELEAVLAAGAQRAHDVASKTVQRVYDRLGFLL

CoaBC: 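Enzyme assay of CoaBC with a phosphate dye (Biomol Green) read at 650 nm. Target: Coenzyme A biosynthesis protein CoaBC, Mycobacterium tuberculosis (UniProt P9WNZ1). Concentration: 30 µM. Higher reads as stronger inhibition, judged from the few compounds that gave an IC50. Most strong results did not repeat in a second test. Of about 67,000 compounds tested this way, about 40 (0.06%) reached 50% or more in at least one test.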
Pks13 thioesterase: 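Polyketide synthase Pks13, Mycobacterium tuberculosis (UniProt I6X8D2). Enzyme assay of the thioesterase domain of polyketide synthase 13; the read-out is not stated. Tested at 30 µM. Higher reads as stronger inhibition (inferred from which compounds were picked for retests). Size under these conditions: about 67,000 compounds, about 300 of them at 50% or above in at least one test.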
ClpP1P2: 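Protease assay of ClpP1P2, read by the AMC dye that it sets free. Target: ClpP1P2, Mycobacterium tuberculosis (UniProt P9WPC5 and UniProt P9WPC3). Concentration: 50 µM. Direction is inferred from only a few compounds that gave an IC50; most scored high, so higher reads as stronger inhibition. Most other retested compounds had strongly negative values. Size under these conditions: about 69,000 compounds, about 10 of them at 50% or above in at least one test.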
Toxoplasma: 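Assay of Toxoplasma gondii numbers, read through their beta-galactosidase reporter with a colour substrate. Tested at 10 µM. Higher reads as fewer parasites (inferred from which compounds were picked for retests). About 67,000 compounds were tested under these conditions; 0.38% (about 260) showed 50% or more at least once.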
LiHisRS: 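Enzyme assay of histidyl-tRNA synthetase; the read-out is not stated. Target: Histidine-tRNA ligase, Leishmania infantum (UniProt A4I591). Tested at 30 µM. Direction is inferred from retests: higher values go with stronger inhibition. The assay is labelled LdHisRS but filed under L. infantum. About 69,000 compounds were tested under these conditions; 0.6% (about 410) showed 50% or more at least once.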
MtTrpRS: 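Tryptophan-tRNA ligase, Mycobacterium tuberculosis (UniProt P9WFT3). Enzyme assay of tryptophanyl-tRNA synthetase; the read-out is not stated. Tested at 10 µM. Higher most likely means stronger inhibition; the record gives no direction and few retests gave an IC50. Of about 65,000 compounds tested this way, about 64 (0.098%) reached 50% or more in at least one test.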

The filed quantity is “Percent Effect” (%).
How 0% and 100% were set is not recorded. Most values in the screen are low, and negative values occur.
The compounds are a random part of those screened.
Two or more numbers in one place are separate tests of the same structure; such repeats can differ widely.
A dash means the value is not listed here; it may have been measured.

SMILES,CoaBC,Pks13 thioesterase,ClpP1P2,Toxoplasma,LiHisRS,MtTrpRS
CCC(C)(CNC(=O)Nc1nncs1)N1CCOCC1 (configuration not stated),2.805,-9.598,-5.536,3.403,13.19,2.781
O=c1c(CN2CCOCC2)coc2ccc(Cl)cc12,2.577,-27.98,-10.46,3.267,9.804,-2.056
CC(C)c1cc(NC(=O)CNC2CCCN(c3cccnn3)C2)on1 (configuration not stated),12.3,-9.782,-12.44,7.531,17.54,7.43
CC(CNS(N)(=O)=O)Oc1cccc(Cl)c1 (configuration not stated),5.221,-23.69,2.16,-40.48,13.43,-5.005
CN1[C@H](CO)C[C@H](CNCc2ccc(CO)o2)[C@@H]1c1ccccc1F,8.554,6.989,-6.104,-2.291,0,1.288
Oc1nc(N2CCOCC2)nc2c1CCN(Cc1cccnc1)CC2,1.944,-53.35,-1.32,-1.602,19.44,-1.254
[H][C@@]12C[C@H](C(=O)N3CCOCC3)[C@@]([H])(CN(C(=O)Nc3ccccc3)C1)O2,-,-,-,-20.24,-,-
c1cncc(O[C@H]2COCCN(Cc3c[nH]c4ccccc34)C2)c1,0.6772,-23.72,-9.757,-9.086,22.22,2.937
CCc1nnc(SCC(=O)Nc2cc(C(C)(C)C)nn2C)[nH]1,7.692,-,-4.745,4.804,15.07,0.2646
COc1cc(F)c(S(=O)(=O)N2c3ncccc3NC(=O)C2C)cc1OC (configuration not stated),4.481,-6.649,-1.719,-1.351,11.76,-1.883
CC(O)CN1CCN(C(=O)c2cnc(OC(C)C)c(Cl)c2)CC1 (configuration not stated),0.4878,10.56,8.482,5.476,8,-4.214
Cc1nc(CSCCC(=O)Nc2cccc(N3CCNC3=O)c2)cs1,0.2301,-20.25,3.093,-13.56,18.75,3.145
CC(=O)N[C@@H]1CN(CC(=O)NCc2ccccc2C)C[C@H]1C(C)C,-34.51,-22.43,-1.057,-12.62,0,1.165
CCCc1noc(C2CCN(C(=O)C3CCCO3)CC2)n1 (configuration not stated),5.724,-10.18,11.4,6.854,17.2,-2.75
COc1cc(N2CCC3(CCCN3Cc3cnn(C)c3)CC2)ncn1.O=C(O)C(F)(F)F,-,-,-,-6.892,-,-
Cn1nnc2cc(C(=O)NS(=O)(=O)Cc3ccc(F)cc3)ccc21,1.613,-4.153,11.62,-3.121,15.79,0.3632
CC(=O)N(C)C1CCN(c2ncc3c(n2)CCN3c2ccccc2)C1 (configuration not stated),7.282,2.447,0.9465,-3.483,40.96,-4.392
CC(Cn1cccn1)NCc1nc(-c2ccccn2)no1 (configuration not stated),5.085,-13.63,8.969,14.56,2.632,-9.723
CC1CCCN(CCNC(=O)c2ccn(-c3ccc(F)cc3)n2)C1 (configuration not stated),3.484,-5.299,-3.189,15.12,13.91,1.071
Cc1cc2n(n1)CC(CNC1CCN(Cc3ccccn3)CC1)CN2 (configuration not stated),-36.48,-23.29,4.598,-5.159,13.11,-4.485
CCCS(=O)(=O)N1CCC2(CC1)CCn1c(-c3cnn(C)c3)cnc12,2.899,41.47,0.2732,-,5.051,-2.364
COc1cccc(CN(Cc2ncc[nH]2)Cc2ccco2)c1,-1.826,-4.858,-48.02,-,8.054,-9.428
OC(CN(Cc1ccccc1)Cc1cscn1)c1cccs1 (configuration not stated),4.536,-49.24,-11.71,-21.63,6.061,-1.57
CN(CCOc1cccc(F)c1)Cc1nc2c(cnn2C)c(=O)[nH]1,0.1277,2.82,-28.13,-15.41,8.036,-2.128
Cc1ccc(CNCC2Cn3nncc3CO2)o1 (configuration not stated),1.733,-5.983,-5.005,4.654,6.306,-
O=C1OCCCN1Cc1nc(-c2ccncc2)no1,1.106,-5.583,-9.04,9.405,7.752,4.351
CCn1cc(NC(=O)NCC(C)(C)N2CCc3ccccc3C2)cn1,3.394,-21.41,-41.65,4.13,7.965,-1.129
CS(=O)(=O)c1cc(Cl)cnc1C1CCN(C(=O)C2CC2)CC1,2.871,-,-2.918,18.47,0,-2.083
Cc1nc(C)n(C2CCCN(C(=O)c3cc(C4CC4)on3)C2)n1 (configuration not stated),1.053,-10.16,-29.69,-13.69,12.04,-7.754
CCOc1ccnc(N2CCN(C(=O)CCc3ccncc3)CC2)n1,-5.832,-10.9,-4.596,8.416,11.43,1.511
Cc1nc(N2CCCC2)ncc1C(=O)Nc1ccc(Br)cc1,2.785,-0.5021,-14.03,8.625,22.83,1.244
NC(=O)c1ccc(NC(=O)c2ccncc2Cl)cn1,-8.482,-15.21,-7.119,7.283,6.25,-2.993
Cc1c(Cl)cccc1NC(=O)CCNc1ccc(C#N)cn1,4.555,-28.39,-0.1682,8.978,6.25,0.1874
CCCC1c2cccn2CCN1C(=O)Cn1cnc2sc(C)cc2c1=O (configuration not stated),-8.385,18.5,-17.53,4.237,16.9,-1.451
O=C1c2cnc(N3CCC(O)CC3)nc2CN1Cc1cccc(F)c1,5.434,-13.65,1.092,15.71,-1.786,-2.369
CN1CCN(C[C@H]2CC[C@@H](Cc3ccc4c(c3)OCO4)O2)CC1,10.91,-19.78,-3.713,9.931,10.96,-0.8922
Cc1ccsc1CN1C[C@@H]2CN(Cc3cccnc3)CCO[C@@H]2C1,-1.463,19.68,-2.577,-,-2.521,10.63
COc1cc(N2CC[C@@H](O)[C@@H]2Cc2ccncc2)ncn1,-6.694,-4.718,3.692,-,21.1,4.813
[H][C@]12C[C@H](C(=O)NC)N(C)[C@@]1([H])CN(C(=O)c1ccncc1F)C2,-,-,-,9.476,-,-
COc1ccc(OCc2nc(C(=O)N3C[C@H](O)[C@@H](N(C)C)C3)co2)cc1,-1.327,4.984,-15.88,-13.38,13.6,-2.101
COc1cccc(Cc2nc3c([nH]2)CC(C)(C)CNC3=O)c1OC,5.291 & 21.36,-23.11,-12.19,-6.832,14.46,3.137
Cc1ccc(F)c2c1N(C(=O)c1cn(CC(=O)N(C)C)nn1)CCC2,1.211,-1.482,-12.72,-5.388,2.174,1.708
CNC(=O)NC(=O)C(NCc1cccs1)c1ccccc1 (configuration not stated),5.732,-,4.822,0.8582,4.396,3.179
O=C(c1cc2cccc(F)c2[nH]1)N1C[C@@H](O)[C@H](N2CCOCC2)C1,0.9132,-5.71,-19.24,-2.405,9.396,-9.679
CNc1ncc(CN(C)c2nc(C)c3ccc(S(C)(=O)=O)cc3n2)cn1,-,-18.89,1.102,-5.479,17.5,3.096
CCC(=O)N1CCCN(C(=O)c2cc(C)cc(Br)c2O)CC1,0,-30.81,-6.874,0.1873,8.901,-5.299
COCCO[C@H]1CCN(C(=O)c2ccno2)[C@H]1Cc1cnn(C)c1,3.106,-9.039,-7.485,0.2302,5.769,-3.002
COc1cc(C(=O)NCC2CCCN(Cc3ccco3)C2)ccn1 (configuration not stated),-1.951,31.3,4.599,1.298,-3.333,9.168
O=C(O)C(F)(F)F.O=C(O)C(F)(F)F.O=C(O)C(F)(F)F.[H][C@@]12CN(Cc3cccnc3)C[C@]1([H])[C@@H](OC)CCN2Cc1c(C)noc1C,-,-,-,9.877,-,-
Cc1ccc(CN2CCC3(CC2)COCCN3S(C)(=O)=O)o1,-2.927,10.95,12.73,-,13.21,-
O=C(O)C(F)(F)F.O=C(O)C(F)(F)F.[H][C@]12CCN(c3ncccn3)[C@@]1([H])C[C@@H](C(=O)NCc1cccnc1)O2,-,-,-,3.542,-,-
CSCCC(=O)N1CCN(CC(C)O)CC1 (configuration not stated),-3.558,7.394,1.509,9.488,3.922,-1.563

Some entries from above, unchanged:

SMILES	CoaBC	Pks13 thioesterase	ClpP1P2	Toxoplasma	LiHisRS	MtTrpRS
Cc1ccsc1CN1C[C@@H]2CN(Cc3cccnc3)CCO[C@@H]2C1	-1.463	19.68	-2.577	-	-2.521	10.63
Cc1ccc(F)c2c1N(C(=O)c1cn(CC(=O)N(C)C)nn1)CCC2	1.211	-1.482	-12.72	-5.388	2.174	1.708
CN1CCN(C[C@H]2CC[C@@H](Cc3ccc4c(c3)OCO4)O2)CC1	10.91	-19.78	-3.713	9.931	10.96	-0.8922
CC1CCCN(CCNC(=O)c2ccn(-c3ccc(F)cc3)n2)C1 (configuration not stated)	3.484	-5.299	-3.189	15.12	13.91	1.071

The values are deposited in ChEMBL (CHEMBL3988442, “University of Dundee, Small-Polar-MMV Screening Library” (2021)).